No constants are given. Whether binding was seen depends on the method and setting. For part of these data: Binding can be weak; no strength is given. Tags and fused reporters may be left off the sequences shown.
Tests used:
[1] = biological target: untagged human RhoA in insect cell membranes (human) (UniProt P61586); experiment: translocation assay (solubilisation of membrane-bound Rho GTPase by soluble RhoGDI); membranes of insect or HeLa cells expressing Rho GTPases (1.0 mg protein) rotated 15 h at 4°C with 40 μM His-tagged RhoGDI in 20 mM Tris-HCl pH 7.5, 1 mM EDTA, 1 mM dithiotreitol, 0.1 mM PMSF; 100,000 x g, supernatants blotted; only the binder purified
[2] = biological target: GST-tagged D. discoideum RacB in insect cell membranes (D. discoideum) (UniProt P34148); experiment: as above
[3] = biological target: GST-tagged D. discoideum RacE in insect cell membranes (D. discoideum) (UniProt Q23862); experiment: as above
[4] = biological target: GST-tagged D. discoideum RacC in insect cell membranes (D. discoideum) (UniProt P34149); experiment: as above
[5] = biological target: GST-tagged D. discoideum RacF2 in insect cell membranes (D. discoideum) (UniProt Q9GPS3); experiment: as above
[6] = biological target: Tuber borchii Cdc42 (TbCdc42), two-hybrid fusion in pGBKT7 (Tuber borchii); experiment: two-hybrid; Matchmaker system (Clontech), Y190 yeast; RhoGDIs in pGADT7 or pACT2, Rho GTPases in pGBKT7 or pAS2-1; growth on -Trp/-Leu/-His/+3AT and colony-lift β-galactosidase assays

By UniProt entry, the sequences of proteins in these tests, tags left out. Where a name states a change or a piece, a line headed by the entry shows the natural chain unless it says otherwise.
UniProt P61586: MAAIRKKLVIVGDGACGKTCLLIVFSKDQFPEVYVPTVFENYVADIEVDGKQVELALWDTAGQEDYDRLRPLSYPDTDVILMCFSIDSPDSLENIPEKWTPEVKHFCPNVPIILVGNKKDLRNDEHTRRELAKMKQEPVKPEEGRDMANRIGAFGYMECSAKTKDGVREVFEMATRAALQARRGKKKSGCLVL
UniProt P34148: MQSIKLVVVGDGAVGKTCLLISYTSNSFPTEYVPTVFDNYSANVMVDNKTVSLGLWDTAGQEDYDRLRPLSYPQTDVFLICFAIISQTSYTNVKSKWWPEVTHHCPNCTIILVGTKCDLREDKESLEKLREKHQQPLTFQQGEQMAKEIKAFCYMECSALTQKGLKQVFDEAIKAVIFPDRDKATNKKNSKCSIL
UniProt Q23862: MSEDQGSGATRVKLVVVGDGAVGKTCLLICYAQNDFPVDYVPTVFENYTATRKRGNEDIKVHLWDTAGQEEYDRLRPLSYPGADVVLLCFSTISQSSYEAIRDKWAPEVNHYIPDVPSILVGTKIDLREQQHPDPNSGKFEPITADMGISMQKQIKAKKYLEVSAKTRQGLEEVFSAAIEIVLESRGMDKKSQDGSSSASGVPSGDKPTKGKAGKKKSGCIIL
UniProt P34149: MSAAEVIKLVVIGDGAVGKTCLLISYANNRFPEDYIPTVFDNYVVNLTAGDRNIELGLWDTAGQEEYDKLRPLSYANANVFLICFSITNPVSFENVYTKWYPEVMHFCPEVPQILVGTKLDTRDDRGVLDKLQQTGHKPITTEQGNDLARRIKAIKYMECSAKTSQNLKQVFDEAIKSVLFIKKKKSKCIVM
UniProt Q9GPS3: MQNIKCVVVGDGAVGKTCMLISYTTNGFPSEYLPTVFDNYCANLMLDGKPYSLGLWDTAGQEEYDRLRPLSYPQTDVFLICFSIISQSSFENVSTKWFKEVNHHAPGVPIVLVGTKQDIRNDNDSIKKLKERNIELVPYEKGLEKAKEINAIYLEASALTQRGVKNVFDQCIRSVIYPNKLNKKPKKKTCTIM

Row | binding [1] | binding [2] | binding [3] | binding [4] | binding [5] | binding [6] | Binder
1 | binds | binds | binds weakly | binds | no binding (tested: 40 μM) |  | recombinant His-tagged bovine RhoGDI (protein, UniProt P19803 1-204) MAEQEPTAEQLAQIAAENEEDEHSVNYKPPAQKSIQEIQELDKDDESLRKYKEALLGRVAVSADPNVPNVVVTRLTLVCSTAPGPLELDLTGDLESFKKQSFVLKEGVEYRIKISFRVNREIVSGMKYIQHTYRKGVKIDKTDYMVGSYGPRAEEYEFLTPMEEAPKGMLARGSYNIKSRFTDDDRTDHLSWEWNLTIKKEWKD
2 |  |  |  |  |  | binds | human LyGDI (RhoGDI2), two-hybrid fusion in pACT2 (protein, UniProt P52566 1-201) MTEKAPEPHVEEDDDDELDSKLNYKPPPQKSLKELQEMDKDDESLIKYKKTLLGDGPVVTDPKAPNVVVTRLTLVCESAPGPITMDLTGDLEALKKETIVLKEGSEYRVKIHFKVNRDIVSGLKYVQHTYRTGVKVDKATFMVGSYGPRPEEYEFLTPVEEAPKGMLARGTYHNKSFFTDDDKQDHLSWEWNLSIKKEWTE

Source: article PMC2362126
